These are yes or no findings as the source states them, for the method shown. Some results given as binding are weak or reduced against the parent protein; the word gives no strength. For some assays here: Tags and fused reporters may be left off the sequences shown.

By UniProt entry, the sequences of proteins in these tests, tags left out. Where a name states a change or a piece, a line headed by the entry shows the natural chain unless it says otherwise.
UniProt Q8TEK3: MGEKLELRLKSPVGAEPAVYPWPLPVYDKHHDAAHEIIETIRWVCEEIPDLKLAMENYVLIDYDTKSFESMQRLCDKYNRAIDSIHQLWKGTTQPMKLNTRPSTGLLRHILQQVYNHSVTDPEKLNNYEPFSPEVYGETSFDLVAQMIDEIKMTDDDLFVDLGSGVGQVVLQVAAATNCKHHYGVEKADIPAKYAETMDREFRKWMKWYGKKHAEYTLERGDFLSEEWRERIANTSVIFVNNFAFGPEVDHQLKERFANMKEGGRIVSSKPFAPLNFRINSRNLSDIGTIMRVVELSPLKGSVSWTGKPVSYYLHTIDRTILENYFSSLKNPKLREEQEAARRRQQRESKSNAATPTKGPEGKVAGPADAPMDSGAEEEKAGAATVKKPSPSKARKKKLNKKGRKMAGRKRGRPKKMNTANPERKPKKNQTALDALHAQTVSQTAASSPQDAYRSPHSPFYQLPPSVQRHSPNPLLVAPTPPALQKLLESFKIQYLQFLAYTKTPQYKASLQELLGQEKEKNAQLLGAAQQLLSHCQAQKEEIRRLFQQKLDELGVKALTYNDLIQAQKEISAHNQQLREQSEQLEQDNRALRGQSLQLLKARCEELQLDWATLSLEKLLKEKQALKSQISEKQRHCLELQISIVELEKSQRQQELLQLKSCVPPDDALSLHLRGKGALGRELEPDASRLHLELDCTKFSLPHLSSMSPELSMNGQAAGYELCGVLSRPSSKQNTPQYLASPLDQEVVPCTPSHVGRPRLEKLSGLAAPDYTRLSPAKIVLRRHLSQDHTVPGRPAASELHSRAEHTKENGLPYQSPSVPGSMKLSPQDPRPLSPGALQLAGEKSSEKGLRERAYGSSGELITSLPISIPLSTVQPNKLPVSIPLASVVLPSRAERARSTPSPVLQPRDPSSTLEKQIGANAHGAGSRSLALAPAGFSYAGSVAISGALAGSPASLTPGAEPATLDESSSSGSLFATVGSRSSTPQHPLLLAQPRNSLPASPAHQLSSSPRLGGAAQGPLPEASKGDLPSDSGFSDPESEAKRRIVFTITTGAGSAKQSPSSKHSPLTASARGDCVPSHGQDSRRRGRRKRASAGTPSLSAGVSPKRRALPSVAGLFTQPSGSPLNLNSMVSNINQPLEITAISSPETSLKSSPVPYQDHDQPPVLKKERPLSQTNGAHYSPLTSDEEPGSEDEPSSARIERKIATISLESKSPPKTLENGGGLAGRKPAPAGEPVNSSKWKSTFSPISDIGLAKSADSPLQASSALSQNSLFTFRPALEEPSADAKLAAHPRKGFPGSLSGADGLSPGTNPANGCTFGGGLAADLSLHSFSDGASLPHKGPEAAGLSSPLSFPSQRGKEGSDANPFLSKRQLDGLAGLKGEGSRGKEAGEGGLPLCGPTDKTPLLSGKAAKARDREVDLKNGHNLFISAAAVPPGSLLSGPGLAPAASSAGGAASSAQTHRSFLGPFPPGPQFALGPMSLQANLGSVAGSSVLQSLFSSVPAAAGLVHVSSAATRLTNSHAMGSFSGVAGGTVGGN
UniProt Q08943: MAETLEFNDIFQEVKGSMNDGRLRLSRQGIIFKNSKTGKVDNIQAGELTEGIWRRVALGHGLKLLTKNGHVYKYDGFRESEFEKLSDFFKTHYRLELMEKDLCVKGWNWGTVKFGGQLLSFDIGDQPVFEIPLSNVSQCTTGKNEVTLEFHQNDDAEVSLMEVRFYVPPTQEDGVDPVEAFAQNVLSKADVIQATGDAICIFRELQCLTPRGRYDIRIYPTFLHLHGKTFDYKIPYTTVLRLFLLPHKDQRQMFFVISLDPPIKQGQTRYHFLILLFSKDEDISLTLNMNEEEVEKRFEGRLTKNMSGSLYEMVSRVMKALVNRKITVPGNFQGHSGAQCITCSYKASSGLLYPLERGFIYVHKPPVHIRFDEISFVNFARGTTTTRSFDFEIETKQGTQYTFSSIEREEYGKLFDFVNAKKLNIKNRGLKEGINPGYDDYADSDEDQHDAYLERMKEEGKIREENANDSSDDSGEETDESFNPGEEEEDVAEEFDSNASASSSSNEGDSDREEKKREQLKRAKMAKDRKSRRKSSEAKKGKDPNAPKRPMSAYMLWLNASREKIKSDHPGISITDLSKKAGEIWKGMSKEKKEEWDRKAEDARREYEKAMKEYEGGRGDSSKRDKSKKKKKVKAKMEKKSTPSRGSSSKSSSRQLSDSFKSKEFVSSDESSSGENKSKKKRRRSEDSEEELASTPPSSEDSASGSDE

From PMC10457349 come the findings set out here.

One experiment concerns the target TetR fusion of DOT1L (UniProt Q8TEK3). Nature of the experiment: TetR recruitment to a TetO array, ChIP-qPCR; mouse ES cells with a TetO array stably expressing FS2-TetR fusion proteins; ChIP-qPCR for endogenous proteins at the TetO array; negative control 1 µg/ml doxycycline for 6 h. For orientation: In qPCR the cycle at which signal appears reflects the starting amount.

In the next experiment the target is T1, TetR fusion of ENL (UniProt Q03111).
T1 sequence: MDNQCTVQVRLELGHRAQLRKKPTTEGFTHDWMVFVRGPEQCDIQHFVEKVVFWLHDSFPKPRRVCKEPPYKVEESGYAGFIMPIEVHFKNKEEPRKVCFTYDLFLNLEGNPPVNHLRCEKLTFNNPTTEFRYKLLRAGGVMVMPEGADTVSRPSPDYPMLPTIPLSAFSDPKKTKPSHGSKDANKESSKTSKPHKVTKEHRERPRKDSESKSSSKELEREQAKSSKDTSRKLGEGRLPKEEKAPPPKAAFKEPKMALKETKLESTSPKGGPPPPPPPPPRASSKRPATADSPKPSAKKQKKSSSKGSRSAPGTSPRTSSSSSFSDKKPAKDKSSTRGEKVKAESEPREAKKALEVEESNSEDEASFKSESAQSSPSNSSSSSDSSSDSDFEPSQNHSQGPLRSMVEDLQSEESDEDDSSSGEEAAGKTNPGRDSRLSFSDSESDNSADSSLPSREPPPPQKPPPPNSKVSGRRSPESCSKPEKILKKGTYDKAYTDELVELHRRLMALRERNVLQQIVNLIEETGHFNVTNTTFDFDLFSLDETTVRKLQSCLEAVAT
The description is as above.

As for “FACT, endogenous in mouse ES cells, detected through Ssrp1 (from UniProt Q08943 1-708; Q920B9 1-1047) (complex)”, the binding entry in the experiment with TetR fusion of DOT1L and in the experiment with TetR fusion of ENL was “binds” in each case.
